Results on 17 molecules are retold here after patent publication US4637698A, “Photochromic compound and articles containing the same” (PPG Industries, Inc., priority 1984, dated 1987).

A short description of series [1]: Photochromic response of ethanol solution to ultraviolet light. The series is classed as physicochemical. The settings on record: for Color of ethanol solution on irradiation with ultraviolet light: UV light (366 nm in Examples 13-15), room temperature where stated. As to the method: Ethanol solutions of each of the compounds of Examples 1-9 changed to blue when irradiated with ultraviolet light at room temperature. The solutions returned to their original hue or colorless condition after the UV light was removed.
A suspension of 5-nitroso-6-quinolinol (1.05 grams, 0.006 mole) in 30 milliliters (ml) of toluene was heated to reflux with stirring. To this heated suspension was slowly added over 20 minutes 1.37 grams of 1-butyl-3-methyl-3-ethyl-2-methylene indoline (0.006 mole) dissolved in 20 ml of toluene. The mixture in the reaction vessel was refluxed for three hours and thereafter the reaction mixture was transferred to an evaporating dish and allowed to evaporate to almost dryness. The almost dried mixture was soaked with 7 ml of fresh toluene, filtered and washed with 3 ml of toluene twice. The filtrate and washings were combined and allowed to evaporate. A viscous dark blue gum formed. The resulting gum-paste was redissolved in about 20 ml of diethyl ether, filtered and the filtrate allowed to evaporate in a hood. […] The blue color disappeared in about 5 minutes when the ultraviolet light was removed.
A suspension of 5-nitroso-6-quinolinol (0.52 grams, 0.003 mole) in 20 milliliters (ml) of toluene was heated to about 100° C. with stirring. To this heated suspension was slowly added over about 20 minutes 1.75 grams of 1,2-dimethyl-3,3-bis(p-methoxyphenyl) indolium iodide (0.003 mole) suspended in 20 ml of toluene containing 0.60 grams of triethylamine (0.006 mole). The mixture in the reaction vessel was maintained at about 100° C. for 2.5 hours and the degree of reaction monitored by thin layer chromotography (TLC). The reaction was almost complete after 1 hour. After 2.5 hours at about 100° C., an additional 0.17 grams (0.001 mole) of 5-nitroso-6-quinolinol was added to the reaction vessel, but total reaction of the indolium iodide reactant was not obtained even after 2 hours at about 100° C. The solids in the reaction mixture were separated by decantation and the remaining liquid allowed to evaporate to almost dryness. Olive green crystals formed in the almost dried paste. The almost dried product was soaked with 7 ml of fresh toluene, filtered and slowly washed with 3 ml of toluene. […] The crystalline insoluble powder was washed with ethanol and air dried. An olive green powder (0.79 grams) was obtained. A sample of the powder was dissolved in ethanol and irradiated with ultraviolet light (366 nm) for about 30 seconds.
A suspension of 5-nitroso-6-quinolinol (1.39 grams, 0.008 mole) in 35 ml of toluene was heated to about 100° C. with stirring. To this heated suspension was slowly added over 20-30 minutes 2.95 grams of 1,2,5,6,-tetramethyl-3,3-spiro (cyclohexyl)-[3H] indolium iodide suspended in 35 ml of toluene containing 1.6 grams of triethylamine (0.016 mole). The progress of the reaction was checked by TLC. The mixture in the reaction vessel was maintained at about 100° C. for three hours. Thereafter, the reaction mixture (a dark brown solution) was allowed to evaporate to almost dryness. The resulting paste was soaked with 6 ml of fresh toluene for several minutes, filtered to remove insoluble material and the resulting solids washed with 2 ml of toluene. The filtrate and washing were combined and allowed to evaporate. A dark brown paste (2.07 grams) resulted. A small amount (about 1 milligram) of the paste was dissolved in about 2-3 ml of ethanol and the resulting solution exposed to ultraviolet light (366 nm) at room temperature.

A short description of series [2]: Photochromic response of coated diethylene glycol bis(allyl carbonate) polymer coupon to activation by artificial sunlight. Format: physicochemical. The settings on record: Table II; for ΔOD, λmax, change in saturation optical density: 580-620 nm, irradiation for 4 minutes with artificial sunlight; for t1/2, halflife for the transmission to increase by 21% from 42% transmission: after irradiation with artificial sunlight; for ΔTR, percent reduction in visible light transmission: photopic filter, after 4 minutes irradiation with artificial sunlight, 2 mm thick coupon. The protocol:
One part of the photochromic compounds of Examples 1-10 were each incorporated into a sprayable lacquer solution of 10 parts of a commercial lacquer (3M Company-lacquer No. 2253), 10 parts toluene and 10 parts methyl ethyl ketone. The lacquer solution was sprayed onto the surface of a 1 inch (2.54 cm) by 1 inch (2.54 cm) by 2 mm thick coupon of a polymer prepared from diethylene glycol bis (allyl carbonate). After drying, the coated coupon was heated in an air oven at 160° C. for 20 minutes. After cooling, the residual lacquer was stripped off with adhesive tape and the surface cleaned with an acetone-wetted cloth. The photochromic tablet was tested for photochromic response to activation by artificial sunlight.
1. ΔTR The percent reduction in visible light transmission
(measured using a photopic filter) induced after 4 minutes irradiation
with artificial sunlight.
2. ΔOD The change in saturation optical density measured in the
range of 580-620 nm induced by irradiation for 4 minutes with artificial
3. t1/2 The halflife in seconds for the transmission of a sample to
increase by 21% from 42% transmission (based on transmission in the clear
state) after irradiation with artificial sunlight.
Photochromic compounds of the prior art were applied to a coupon made from diethylene glycol (bis)allyl carbonate) in the same manner as described in Example 11. The photochromic response to these articles is compared to that of Examples 2, 3, and 4 in Table III. These photochromic compounds can be depicted by the following graphic formula, [drawing 10] wherein R4, R5, R6 and X are identified in Table III.

For the molecule `CCCCN1c2ccccc2C(C)(CC)C12C=Nc1c(ccc3ncccc13)O2` (stereo not shown) [Example 10], the “Color of ethanol solution on irradiation with ultraviolet light” value (from here on “Color of ethanol solution on irradiation”) in series [1] was “turned a blue color”. In addition, in series [1] (after UV light removed), the “Time for ethanol solution to lose color / return to original hue after removal of ultraviolet light” value is “about 5 minutes”. In series [2], the “ΔOD, λmax, change in saturation optical density” value (shortened to “ΔOD, λmax, change”) is 0.67; the “t1/2, halflife for the transmission to increase by 21% from 42% transmission” value amounted to 21 s; the “ΔTR, percent reduction in visible light transmission” value (“ΔTR, percent reduction” for short) came to 59%.
Take `CN1c2ccccc2C(C)(C)C12C=Nc1c(ccc3ncccc13)O2` (stereo not shown) [Example 2]: in series [2], the “ΔOD, λmax, change” value came out at 0.41; the “t1/2, halflife for the transmission to increase by 21% from 42% transmission” value stood at 14 s; the “ΔTR, percent reduction” value is listed as 48%.
For `COc1ccc(C2(c3ccc(OC)cc3)c3ccccc3N(C)C23C=Nc2c(ccc4ncccc24)O3)cc1` (stereo not shown) [Example 13], the “Color of ethanol solution on irradiation” value in series [1] is “turned from pale green to blue”. Moreover, the “Return of color after ultraviolet light removed (in words)” value in series [1] (after UV light removed) is given as “returned to pale green”.
Turning to `CCCCN1c2cc(C)c(C)cc2C(C)(CC)C12C=Nc1c(ccc3ncccc13)O2` (stereo not shown) [Example 17], the “Color of ethanol solution on irradiation” value in series [1] was “became sky blue”. In addition, the “Time for ethanol solution to lose color / return to original hue after removal of ultraviolet light” value in series [1] (after UV light removed) was “about 5 minutes”.
Consider `COc1ccc2c(c1)C(C)(C)C1(C=Nc3c(ccc4ncccc34)O1)N2C` (stereo not shown) [Example 4], for which, in series [2], the “ΔOD, λmax, change” value worked out at 0.98; the “t1/2, halflife for the transmission to increase by 21% from 42% transmission” value amounted to 45 s; the “ΔTR, percent reduction” value is 66%.
`CCN1c2cc(C)c(C)cc2C(C)(CC)C12C=Nc1c(ccc3ncccc13)O2` (stereo not shown) [Example 16]: in series [1], the “Color of ethanol solution on irradiation” value is reported as “became deep blue”. The “Time for ethanol solution to lose color / return to original hue after removal of ultraviolet light” value in series [1] (after UV light removed) fell in the range of 3 to 4 min.
`CCC1(C)c2cc(C)c(C)cc2N(C)C12C=Nc1c(ccc3ncccc13)O2` (stereo not shown) [Example 1, 1,3,5,6-tetramethyl-3-ethylspiro[indoline-2,3'[3H]pyrido [3,2 f] [1,4]-benzoxazine]]: in series [2], the “ΔOD, λmax, change” value was 1.33; the “t1/2, halflife for the transmission to increase by 21% from 42% transmission” value was found to be 57 s; the “ΔTR, percent reduction” value is recorded as 76%.
As for `Cc1c(Cl)ccc2c1N(C)C1(C=Nc3c(ccc4ncccc34)O1)C2(C)C` (stereo not shown) [Example 5], in series [2], the “ΔOD, λmax, change” value stood at 0.16 and the “t1/2, halflife for the transmission to increase by 21% from 42% transmission” value stood at 8 s.
With `C=CCN1c2cc(C)c(C)cc2C(C)(CC)C12C=Nc1c(ccc3ncccc13)O2` (stereo not shown) [Example 15], the “Color of ethanol solution on irradiation” value in series [1] is “turned green”. Also, in series [1] (after UV light removed), the “Time for ethanol solution to lose color / return to original hue after removal of ultraviolet light” value was in the range of 1 to 2 min.
In the case of `CCCCN1c2cc(C)c(C)cc2C(C)(C)C12C=Nc1c(ccc3ncccc13)O2` (stereo not shown) [Example 18], in series [1], the “Color of ethanol solution on irradiation” value is “turned a dark blue”. Moreover, the “Time for ethanol solution to lose color / return to original hue after removal of ultraviolet light” value in series [1] (after UV light removed) was 4 to 5 min.
For `CN1c2ccccc2C(c2ccccc2)(c2ccccc2)C12C=Nc1c(ccc3ncccc13)O2` (stereo not shown) [Example 8], in series [2], the “ΔOD, λmax, change” value worked out at 0.29; the “t1/2, halflife for the transmission to increase by 21% from 42% transmission” value was 21 s; the “ΔTR, percent reduction” value worked out at 37%.
Take `CCC1(C)c2cc(C)c(C)cc2N(Cc2ccccc2)C12C=Nc1c(ccc3ncccc13)O2` (stereo not shown) [Example 19]: in series [1], the “Color of ethanol solution on irradiation” value is on record as “turned medium blue”. For the same molecule, in series [1] (after UV light removed), the “Time for ethanol solution to lose color / return to original hue after removal of ultraviolet light” value was 3 to 4 min.
With `Cc1cc2c(cc1C)C1(CCCCC1)C1(C=Nc3c(ccc4ncccc34)O1)N2C` (stereo not shown) [Example 14], the “Color of ethanol solution on irradiation” value in series [1] was “turned pale blue”. In addition, in series [1] (after UV light removed), the “Time for ethanol solution to lose color / return to original hue after removal of ultraviolet light” value is on record as “about 2 minutes”.
On to `CCC1(C)c2ccccc2N(C)C12C=Nc1c(ccc3ncccc13)O2` (stereo not shown) [Example 6], for which, in series [2], the “ΔOD, λmax, change” value was determined as 0.49 and the “t1/2, halflife for the transmission to increase by 21% from 42% transmission” value stood at 18 s.
Consider `CN1c2ccccc2C2(CCCCC2)C12C=Nc1c(ccc3ncccc13)O2` (stereo not shown) [Example 9], for which, in series [2], the “ΔOD, λmax, change” value amounted to 0.40; the “t1/2, halflife for the transmission to increase by 21% from 42% transmission” value was 26 s; the “ΔTR, percent reduction” value stood at 46%.
The like results for `Cc1cc2c(cc1C)C(C)(C)C1(C=Nc3c(ccc4ncccc34)O1)N2C` (stereo not shown) [Example 3] were, in that order, 1.13, 41 s and 72%.
Regarding `CN1c2ccccc2C(C)(c2ccccc2)C12C=Nc1c(ccc3ncccc13)O2` (stereo not shown) [Example 7], in series [2], the “ΔOD, λmax, change” value is given as 0.61 and the “t1/2, halflife for the transmission to increase by 21% from 42% transmission” value stood at 21 s.
